Results deposited as PubChem BioAssay AID686938 (Drosophila RNAi Screening Center, 2013).

- Test: 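Knock-downs reducing store-operated calcium influx in Drosophila cells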 (primary screen)
- Cell system: Drosophila S2R+ cells
- Reagents: long dsRNA against Drosophila genes, about 0.25 µg dsRNA per well, roughly 10,000 cells
- Timing: 5 days of knock-down before the calcium assay
- Conditions: thapsigargin (SERCA pump blocker) to empty calcium stores; entry signal taken 4 min after adding it
- Read-out: 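Duplicate raw fluo-4 intensities per well from a plate reader, at rest and four minutes after thapsigargin emptied calcium stores; entry-to-rest ratio filled for only some wells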
- Reading the numbers: calcium entry signal: higher = stronger calcium signal after store depletion; entry to resting ratio: higher = more calcium entry relative to resting level; resting calcium signal: higher = higher resting calcium signal
- Hit rule: 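Hit if the duplicate-averaged plate z-score for entry over resting signal is under −3; wells with weak total dye signal (Fmax z < −2) or more than 5 off-targets removed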
- Meaning of the calls: active = strongly reduced calcium entry; inactive = no strong reduction
The screen tested about 23,000 reagents; this is an unselected part of those with a known target gene and a result. Over the whole deposit, 75 (0.33%) got an active call. 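Raw plate signals without normalisation; calls rest on plate z-scores that were not deposited; ratio present for only 364 wells.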 A number with no mark means an inactive call. A plus sign joins genes that one reagent is predicted to hit. The record does not give: the dose of the treatment.

Target gene	DRSC id	calcium entry signal, replicate 1 (fluorescence units)	calcium entry signal, replicate 2 (fluorescence units)	entry to resting ratio	resting calcium signal, replicate 1 (fluorescence units)	resting calcium signal, replicate 2 (fluorescence units)
CG12204	DRSC19442	3.07e7	3.86e7		1.47e7	1.57e7
Shawn + Tyler	DRSC19564	2.09e7	2.83e7		1.13e7	1.24e7
Shawn + Tyler	DRSC19565	4.01e7	3.55e7		2.08e7	1.63e7
CAHbeta	DRSC14449	3.04e7	3.49e7		1.27e7	1.55e7
peo	DRSC05995	4.36e7	3.40e7		1.84e7	1.65e7
CG10950	DRSC06020	4.43e7	4.43e7		1.99e7	2.19e7
CG14893	DRSC15015	2.69e7	2.72e7		1.27e7	3.95e7
CG16853	DRSC01877	3.64e7	2.26e7		1.63e7	1.17e7
CG2608	DRSC02709	4.46e7			2.45e7	
shrb	DRSC07061	2.39e7	2.02e7		1.42e7	1.34e7
Dus3	DRSC02059	4.60e7	4.64e7		1.93e7	2.11e7
sisA	DRSC20374	4.12e7	3.92e7		1.81e7	1.72e7
CG13671	DRSC10030	3.84e7	2.46e7		2.58e7	1.20e7
CG6028	DRSC15951	3.33e7	3.51e7		1.64e7	1.61e7
CG32187	DRSC10521	4.89e7	7.40e7		2.32e7	2.99e7
lncRNA:noe	DRSC22747	3.67e7	3.56e7		1.88e7	1.49e7
Zw10	DRSC18793	5.51e7	5.43e7		2.61e7	2.43e7
CG30114	DRSC05707	2.40e7	4.58e7		1.18e7	2.20e7
CG7550	DRSC10875	3.34e7	4.33e7		1.56e7	1.90e7
ftz	DRSC12626	4.21e7	3.63e7		1.63e7	1.68e7
Alp12	DRSC02515	4.20e7	4.88e7		2.13e7	2.12e7
CG8818	DRSC07275	4.05e7	4.24e7		1.74e7	2.01e7

Reformatted: entries from further up
| Target gene | DRSC id | calcium entry signal, replicate 1 (fluorescence units) | calcium entry signal, replicate 2 (fluorescence units) | entry to resting ratio | resting calcium signal, replicate 1 (fluorescence units) | resting calcium signal, replicate 2 (fluorescence units) |
| --- | --- | --- | --- | --- | --- | --- |
| CG30114 | DRSC05707 | 2.40e7 | 4.58e7 | – | 1.18e7 | 2.20e7 |
| CG7550 | DRSC10875 | 3.34e7 | 4.33e7 | – | 1.56e7 | 1.90e7 |
| ftz | DRSC12626 | 4.21e7 | 3.63e7 | – | 1.63e7 | 1.68e7 |
| Alp12 | DRSC02515 | 4.20e7 | 4.88e7 | – | 2.13e7 | 2.12e7 |

Next results:
Target gene	DRSC id	calcium entry signal, replicate 1 (fluorescence units)	calcium entry signal, replicate 2 (fluorescence units)	entry to resting ratio	resting calcium signal, replicate 1 (fluorescence units)	resting calcium signal, replicate 2 (fluorescence units)
CG1428	DRSC03708	3.11e7	4.50e7		1.54e7	1.99e7
COX6AL	DRSC21454	4.67e7	3.22e7		2.29e7	1.46e7
Su(var)3-7	DRSC16872	2.74e7	3.72e7		1.41e7	5.62e7
Drep1	DRSC07527	3.29e7	3.82e7		1.73e7	1.68e7
CG13216	DRSC06338	1.86e7	3.73e7		1.05e7	1.42e7
CG33290	DRSC11493	3.64e7	3.36e7		1.69e7	1.56e7
Cap-H2	DRSC14908	5.13e7	5.34e7		2.19e7	2.33e7
scro	DRSC17099	3.33e7	3.31e7		1.53e7	1.42e7
scro	DRSC17102	5.75e7	6.06e7	2.4	2.38e7	2.20e7
Lrr47	DRSC03365	4.62e7			2.18e7	
ranshi	DRSC16564	4.92e7	3.14e7		2.26e7	1.57e7
Ilp2	DRSC10968	5.20e7	3.93e7		2.82e7	1.61e7
Abp1	DRSC09693	3.16e7	4.69e7		1.74e7	2.14e7
SC35	DRSC02502	4.63e7	3.16e7		2.10e7	1.52e7
SC35	DRSC03425	4.35e7	2.68e7		1.88e7	1.28e7
Or59b	DRSC04632	3.55e7	3.76e7		1.86e7	1.79e7
CG1494	DRSC20509	4.03e7	3.69e7		2.30e7	1.75e7
Not1	DRSC06787	3.84e7	3.85e7		1.77e7	1.74e7
Not1	DRSC06794	2.74e7	2.30e7		1.40e7	1.15e7
